# Experimental data as given in PubChem BioAssay AID504467 (National Center for Advancing Translational Sciences (NCATS), 2011).
# The whole screen tested about 330,000 compounds, of which about 7,700 (2.3%) were called active. Inconclusive means that the source gave no clear call. Such entries were picked first, then a sample of the others. Calls follow the shape of the dose curve; as a rule, active = well fitted inhibition curve with a large enough effect; inconclusive = small, poorly fitted or top-dose-only effect, or effect the other way; inactive = flat fitted curve, though single readings scatter. Where the call is inconclusive, the potency comes from a doubtful curve fit.
# Test: qHTS screen for small molecules that inhibit ELG1-dependent DNA repair in human embryonic kidney (HEK293T) cells expressing luciferase-tagged ELG1; also: nearly all actives have a fitted effect of over 55% in size
# Details: HEK293T ELG1-luciferase reporter, luminescence, 16 h, DNA damage induced by 5-fluorouridine; activity change, negative = inhibition: at 46.1 µM (top of the series)
# Procedure, shortened: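 HEK293T cells expressing luciferase-tagged ELG1 (2,000/well) received 5-Fluorouridine plus compound or DMSO for 16 hr at 37 °C. Luciferase was read by ONE-Glo luminescence after 30 min at room temperature.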
# % is scaled to controls: 0 for no effect and ±100 for the full control effect; potency is read from the fitted curve at half-maximal effect.
Compound,Potency,"activity change, negative = inhibition"
Cc1cc(NCCOCCO)n2ncc(-c3ccc(Cl)cc3)c2n1,"inconclusive: 1.46 µM [activator, full curve]",–
C=CCC[C@H](Cc1ccc(F)cc1)C(=O)OC[C@H](C)NC(=O)[C@@H](CC=C)CC(=O)N[C@H](CO)Cc1ccccc1,"inconclusive: 20.6 µM [inhibitor, partial curve]",–
Cc1ccc2nc(-c3ccccc3)cc(C(=O)N3CCN(S(=O)(=O)c4c(C)noc4C)CC3)c2c1,"inconclusive: 2.31 µM [inhibitor, partial curve, poor fit]",–
COc1ccc(C(=O)N/N=C(\C)CC(=O)Nc2ccc(Cl)cn2)cc1,"inconclusive: 20.6 µM [activator, partial curve]",–
C/C(=N\NC(=O)c1cccs1)c1ccc(C(=O)O)s1,"inconclusive: 29.1 µM [activator, single point]",–
COC(=O)c1sc(C(C)(C)C)cc1CS(=O)(=O)c1ccccn1,active: 16.4 µM,–
O=C(c1ccc(S(=O)(=O)N2CCOCC2)cc1)N1CCc2ccccc21,inactive,–
CC1(C)CC2CC(C)(CN2C(=O)COC(=O)c2cccc([N+](=O)[O-])c2)C1 (centres undefined),"inconclusive: 29.1 µM [inhibitor, single point]",–
CNC(=O)COC(=O)c1ccccc1Nc1ccccc1,"inconclusive: 25.9 µM [activator, single point]",–
c1ccc(CNc2ccc(N3CCOCC3)cc2)cc1,"inconclusive: 4.61 µM [activator, full curve]",–
CN1CCN(C(=O)/C(=C/c2cn(S(=O)(=O)N(C)C)c3ccccc23)NC(=O)c2ccccc2Cl)CC1,inactive,–
COc1cc(C=C2C(=O)OC(c3ccccc3)OC2=O)cc(Br)c1O (centres undefined),inactive,–
CCOC(=O)c1ccc(Nc2ccc(-c3ccc(OC)c(OC)c3)nn2)cc1,inactive,–
Oc1ccc(/C=N/NC2=NCCCCC2)c(O)c1,"inconclusive: 16.4 µM [activator, partial curve]",–
CC(=O)Nc1ccc(NC(=O)COC(=O)C2c3ccccc3Oc3ccccc32)cc1,inactive,–
CC(C)C(C)NC(=O)COc1ccc(Sc2ccc(OCC(=O)NC(C)C(C)C)cc2)cc1 (centres undefined),active: 8.2 µM,–
O=C(CSc1nnc(COc2ccccc2)n1Cc1ccco1)c1ccc(F)cc1,"inconclusive: 20.6 µM [inhibitor, single point]",–
O/N=C/CCn1c(=S)sc2ccccc21,"inconclusive: 20.6 µM [inhibitor, partial curve, poor fit]",–
CCN(CC)CCN(C)c1ccc(N2C(=O)C3CC=CCC3C2=O)cc1[N+](=O)[O-] (centres undefined),"inconclusive: 5.8 µM [inhibitor, partial curve, poor fit]",–
CCOc1ncccc1C(=O)OCC(=O)c1cc(C)n(Cc2ccco2)c1C,"inconclusive: 6.51 µM [activator, partial curve]",–
Cc1ccc(S(=O)(=O)N2CCOCC2)cc1NC(=O)COC(=O)/C=C/c1ccco1,"inconclusive: 8.2 µM [activator, single point]",–
COCCC(=O)N1CCC(Oc2ccc(C(=O)NCc3cc(C)n(C)n3)cc2)CC1,"inconclusive: 5.8 µM [activator, partial curve, poor fit]",–
COc1ccc2nc(Nc3nc4cc5c(cc4s3)OCCO5)sc2c1,"inconclusive: 16.4 µM [activator, single point]",–

Compound,Potency,"activity change, negative = inhibition"
Cc1c(C(=O)N2c3ccccc3CC2C)oc2ccccc12 (centres undefined),"inconclusive: 4.11 µM [activator, full curve]",–
CC1CCN(C(=O)COC(=O)Cc2ccc(Br)cc2)CC1,inactive,–
Cn1nccc1C(=O)N1CCN(c2ncccn2)CC1,–,inconclusive: 46.5% [activator]
Clc1ccccc1N/N=C/c1ccc2c(c1)OCO2,"inconclusive: 20.6 µM [activator, partial curve]",–
CCc1ccccc1OCC(=O)Nc1cccc(S(=O)(=O)NCc2ccco2)c1,"inconclusive: 23.1 µM [inhibitor, partial curve, poor fit]",–
O=C(CSc1ccccc1C(=O)N1CCN(c2ccc([N+](=O)[O-])cc2)CC1)N1CCCC1,active: 14.6 µM,–
CCn1cnc2cc(NCc3cccc(OC)c3O)ccc21,"inconclusive: 23.1 µM [activator, single point]",–
O=C(NC1CCCCC1)c1ccc(S(=O)(=O)NCc2cccnc2)cc1,"inconclusive: 20.6 µM [inhibitor, partial curve]",–
CN(C)S(=O)(=O)c1ccc(C(=O)N2CC(=O)Nc3ccc(F)cc3C2c2ccc(F)cc2)cc1 (centres undefined),inactive,–
Cc1c(-n2c(SCC(=O)N(C)C3CCS(=O)(=O)C3)nc3ccccc3c2=O)c(=O)n(-c2ccccc2)n1C (centres undefined),"inconclusive: 29.1 µM [activator, single point]",–
CCc1cc2c(NC(Cc3ccccc3)C(=O)O)nc(C)nc2s1 (centres undefined),inactive,–
Cc1ccc(OCC(=O)NCCc2nc3ccccc3[nH]2)c(C)c1,inactive,–
CN(C)c1nc(-c2ccccc2)ns1,"inconclusive: 11.6 µM [activator, partial curve]",–
CCOc1ccccc1/C=N/NC(=O)c1cccc(S(=O)(=O)N(CC)CC)c1,"inconclusive: 0.73 µM [inhibitor, full curve]",–
CCn1c(SCC(=O)N2c3ccccc3Sc3ccccc32)nnc1-c1ccco1,"inconclusive: 29.1 µM [inhibitor, single point]",–
COc1cc(C(=O)Nc2cccc(C(C)=O)c2)cc(OC)c1OC,inactive,–
CCOc1ccc(Cl)cc1CN1CCOCC1,inactive,–
COc1ccc(CC(=O)Nc2ccc(NC(=O)c3ccccc3F)cc2)cc1,"inconclusive: 16.4 µM [activator, partial curve, poor fit]",–
Oc1ccc(/C=N/N2CCN(C3c4ccccc4-c4ccccc43)CC2)cc1O,inactive,–
COc1ccc(C(=O)CCC(C)(C)[N+](=O)[O-])cc1OC,inactive,–
CCCn1c(N)c(C(=O)CSc2ncnc3sccc23)c(=O)n(C)c1=O,"inconclusive: 7.3 µM [inhibitor, partial curve, poor fit]",–
CCc1ccc2nc3n[nH]c(N)c3cc2c1,"inconclusive: 8.2 µM [activator, partial curve]",–
CN1CCN(NC(=O)c2cc(S(=O)(=O)Nc3ccc(Cl)cc3)ccc2Cl)CC1,"inconclusive: 32.6 µM [inhibitor, single point]",–

Compound,Potency,"activity change, negative = inhibition"
O=C(CS(=O)c1ccc(C(F)(F)F)cc1[N+](=O)[O-])Oc1ccccc1 (centres undefined),"inconclusive: 29.1 µM [inhibitor, single point]",–
CCOc1ccc(CCN2C(=O)c3ccc(C(=O)O)cc3C2=O)cc1OCC,inactive,–
Cc1cc(-c2nnco2)c(C)n1-c1ccccc1,"inconclusive: 13 µM [activator, partial curve]",–
COC(=O)c1ccc(CNC(=O)c2ccc(S(=O)(=O)N3CCCCCC3)cc2)cc1,inactive,–
[O-]/C(=C(\C(=S)Nc1ccc(SC(F)F)cc1)[n+]1ccccc1)c1cc(Cl)ccc1Cl,"inconclusive: 20.6 µM [inhibitor, single point]",–
COc1ccc(CCC(=O)N2CCN(S(=O)(=O)c3cccc(Cl)c3)CC2)cc1,inactive,–
COc1ccc(NC(=O)OCC(C)C)cc1OC,"inconclusive: 20.6 µM [activator, partial curve]",–
O=C(c1ccc(-n2cnnn2)cc1)N1CCN(C(c2ccccc2)c2ccccc2)CC1,"inconclusive: 32.6 µM [inhibitor, partial curve, poor fit]",–
CCCCCCN(C(=O)CCCCCN1C(=O)NC(c2ccccc2)C(C(=O)OCc2ccccc2)=C1C)C(C(=O)NCCCC)c1ccc(OCC(=O)OC)c(C(=O)OC)c1 (centres undefined),"inconclusive: 14.6 µM [inhibitor, partial curve]",–
CNc1ccc(/C=C/C(=O)c2ccc3c(c2)OCCO3)cc1[N+](=O)[O-],inactive,–
NS(=O)(=O)c1cc(C(=O)Nc2ccc3c(c2)CCC3)ccc1Cl,"inconclusive: 29.1 µM [activator, single point]",–
CCc1ccc(NC(=O)C(NS(=O)(=O)c2cccc3nsnc23)c2ccccc2)cc1 (centres undefined),inactive,–
C#CCOc1ccc(/C=C2/C(=O)ON=C2C)cc1OCC,"inconclusive: 29.1 µM [activator, single point]",–
O=C1CN2CCC1C/C2=C\c1ccnc2c(Cl)cccc12 (centres undefined),active: 10.3 µM,–
CCOC(=O)c1c(NC(=O)C(Sc2ccccc2)c2ccccc2)sc(C(N)=O)c1C (centres undefined),"inconclusive: 18.4 µM [inhibitor, single point]",–
COc1ccc(C2CC(C(F)(F)F)n3nc(C(=O)NCc4cn(C)nc4C)c(Cl)c3N2)cc1 (centres undefined),active: 23.1 µM,–
CCCN(CC1CC1)C(=S)NC(=O)c1ccccc1Br,inactive,–
Cc1ccc(OCC(=O)Nc2ccc3c(c2)CCC3)c([N+](=O)[O-])n1,"inconclusive: 20.6 µM [activator, partial curve]",–
CCC(CO)Oc1cc(NCc2cccc(OC)c2)c2ncn(C(C)C)c2c1 (centres undefined),"inconclusive: 25.9 µM [inhibitor, single point]",–
Cc1ccc(S(=O)(=O)CC(CN2CCCCC2)N2CCCCC2)cc1 (centres undefined),"inconclusive: 29.1 µM [inhibitor, single point]",–
CC(C)[C@@H](CSc1ccccc1)N1CCN(Cc2ccccc2)CCC1=O,"inconclusive: 6.51 µM [activator, single point]",–
CCc1nc(N2CCN(C(C)=O)CC2)c2c3c(sc2n1)CC(C(C)(C)C)CC3 (centres undefined),"inconclusive: 18.3 µM [inhibitor, single point]",–
COc1ccccc1CN1CC(C(=O)NCCc2ncccc2C)CCC1=O (centres undefined),inactive,–

# Exported tab-delimited: part of the list above
Compound	Potency	activity change, negative = inhibition
COC(=O)c1ccc(CNC(=O)c2ccc(S(=O)(=O)N3CCCCCC3)cc2)cc1	inactive	–
[O-]/C(=C(\C(=S)Nc1ccc(SC(F)F)cc1)[n+]1ccccc1)c1cc(Cl)ccc1Cl	inconclusive: 20.6 µM [inhibitor, single point]	–
O=C(c1ccc(-n2cnnn2)cc1)N1CCN(C(c2ccccc2)c2ccccc2)CC1	inconclusive: 32.6 µM [inhibitor, partial curve, poor fit]	–
CCCCCCN(C(=O)CCCCCN1C(=O)NC(c2ccccc2)C(C(=O)OCc2ccccc2)=C1C)C(C(=O)NCCCC)c1ccc(OCC(=O)OC)c(C(=O)OC)c1 (centres undefined)	inconclusive: 14.6 µM [inhibitor, partial curve]	–
O=C1CN2CCC1C/C2=C\c1ccnc2c(Cl)cccc12 (centres undefined)	active: 10.3 µM	–
